According to article PMC5841321:

T1: E3 ubiquitin-protein ligase Midline-1 (UniProt O15344)
T1 sequence: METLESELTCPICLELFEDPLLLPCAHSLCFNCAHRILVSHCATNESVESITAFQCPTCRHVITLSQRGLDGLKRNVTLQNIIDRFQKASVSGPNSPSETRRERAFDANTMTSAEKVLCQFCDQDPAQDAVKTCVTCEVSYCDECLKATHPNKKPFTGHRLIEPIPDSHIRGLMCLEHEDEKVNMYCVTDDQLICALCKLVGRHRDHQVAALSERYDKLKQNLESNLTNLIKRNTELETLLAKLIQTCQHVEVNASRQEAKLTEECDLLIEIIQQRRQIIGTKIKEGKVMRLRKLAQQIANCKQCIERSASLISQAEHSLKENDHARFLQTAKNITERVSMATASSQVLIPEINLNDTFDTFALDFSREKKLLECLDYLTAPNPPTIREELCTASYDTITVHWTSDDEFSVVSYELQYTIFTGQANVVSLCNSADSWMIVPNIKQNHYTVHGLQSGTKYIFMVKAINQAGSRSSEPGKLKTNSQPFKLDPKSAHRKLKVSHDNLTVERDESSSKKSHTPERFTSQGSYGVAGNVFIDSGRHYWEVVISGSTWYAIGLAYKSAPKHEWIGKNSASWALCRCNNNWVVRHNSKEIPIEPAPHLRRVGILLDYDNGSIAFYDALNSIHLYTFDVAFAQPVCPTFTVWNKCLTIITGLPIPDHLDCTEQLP


molecular target: T1, E3 ubiquitin-protein ligase Midline-1; assay: affinity purification with mass spectrometry; MID1-FLAG expressed in HEK293T, lysate in TKM buffer (20 mM Tris pH 7.4, 100 mM KCl, 5 mM MgCl2, 0.5% NP40, 1 mM DTT), anti-FLAG M1 agarose overnight at 4 °C, 6 washes; untransfected cells as control; Q-Exactive, MaxQuant, 1% FDR

| binding | Binder |
| --- | --- |
| binds | RING finger protein 219 (protein, UniProt Q5W0B1 1-726) MAQTVQNVTLSLTLPITCHICLGKVRQPVICINNHVFCSICIDLWLKNNSQCPACRVPITPENPCKEIIGGTSESEPMLSHTVRKHLRKTRLELLHKEYEDEIDCLQKEVEELKSKNLSLESQIKTILDPLTLVQGNQNEDKHLVTDNPSKINPETVAEWKKKLRTANEIYEKVKDDVDKLKEANKKLKLENGGLVRENLRLKAEVDNRSPQKFGRFAVAALQSKVEQYERETNRLKKALERSDKYIEELESQVAQLKNSSEEKEAMNSICQTALSADGKGSKGSEEDVVSKNQGDSARKQPGSSTSSSSHLAKPSSSRLCDTSSARQESTSKADLNCSKNKDLYQEQVEVMLDVTDTSMDTYLEREWGNKPSDCVPYKDEELYDLPAPCTPLSLSCLQLSTPENRESSVVQAGGSKKHSNHLRKLVFDDFCDSSNVSNKDSSEDDISRSENEKKSECFSSPKTGFWDCCSTSYAQNLDFESSEGNTIANSVGEISSKLSEKSGLCLSKRLNSIRSFEMNRTRTSSEASMDAAYLDKISELDSMMSESDNSKSPCNNGFKSLDLDGLSKSSQGSEFLEEPDKLEEKTELNLSKGSLTNDQLENGSEWKPTSFFLLSPSDQEMNEDFSLHSSSCPVTNEIKPPSCLFQTEFSQGILLSSSHRLFEDQRFGSSLFKMSSEMHSLHNHLQSPWSTSFVPEKRNKNVNQSTKRKIQSSLSSASPSKATKS |
| binds | ATP-binding cassette sub-family F member 2 (protein, UniProt Q9UG63 1-623) MPSDLAKKKAAKKKEAAKARQRPRKGHEENGDVVTEPQVAEKNEANGRETTEVDLLTKELEDFEMKKAAARAVTGVLASHPNSTDVHIINLSLTFHGQELLSDTKLELNSGRRYGLIGLNGIGKSMLLSAIGKREVPIPEHIDIYHLTREMPPSDKTPLHCVMEVDTERAMLEKEAERLAHEDAECEKLMELYERLEELDADKAEMRASRILHGLGFTPAMQRKKLKDFSGGWRMRVALARALFIRPFMLLLDEPTNHLDLDACVWLEEELKTFKRILVLVSHSQDFLNGVCTNIIHMHNKKLKYYTGNYDQYVKTRLELEENQMKRFHWEQDQIAHMKNYIARFGHGSAKLARQAQSKEKTLQKMMASGLTERVVSDKTLSFYFPPCGKIPPPVIMVQNVSFKYTKDGPCIYNNLEFGIDLDTRVALVGPNGAGKSTLLKLLTGELLPTDGMIRKHSHVKIGRYHQHLQEQLDLDLSPLEYMMKCYPEIKEKEEMRKIIGRYGLTGKQQVSPIRNLSDGQKCRVCLAWLAWQNPHMLFLDEPTNHLDIETIDALADAINEFEGGMMLVSHDFRLIQQVAQEIWVCEKQTITKWPGDILAYKEHLKSKLVDEEPQLTKRTHNV |
| binds | Ribosome-binding protein 1 (protein, UniProt Q9P2E9 1-1410) MDIYDTQTLGVVVFGGFMVVSAIGIFLVSTFSMKETSYEEALANQRKEMAKTHHQKVEKKKKEKTVEKKGKTKKKEEKPNGKIPDHDPAPNVTVLLREPVRAPAVAVAPTPVQPPIIVAPVATVPAMPQEKLASSPKDKKKKEKKVAKVEPAVSSVVNSIQVLTSKAAILETAPKEVPMVVVPPVGAKGNTPATGTTQGKKAEGTQNQSKKAEGAPNQGRKAEGTPNQGKKTEGTPNQGKKAEGTPNQGKKAEGTPNQGKKAEGAQNQGKKVDTTPNQGKKVEGAPTQGRKAEGAQNQAKKVEGAQNQGKKAEGAQNQGKKGEGAQNQGKKAEGAQNQGKKAEGAQNQGKKAEGAQNQGKKAEGAQNQGKKAEGAQNQGKKAEGAQNQGKKVEGAQNQGKKAEGAQNQGKKAEGAQNQGKKAEGAQNQGKKAEGAQNQGKKAEGAQNQGKKAEGAQNQGKKAEGAQNQGKKVEGAQNQGKKAEGAQNQGKKAEGAQNQGKKAEGAQNQGQKGEGAQNQGKKTEGAQGKKAERSPNQGKKGEGAPIQGKKADSVANQGTKVEGITNQGKKAEGSPSEGKKAEGSPNQGKKADAAANQGKKTESASVQGRNTDVAQSPEAPKQEAPAKKKSGSKKKGEPGPPDADGPLYLPYKTLVSTVGSMVFNEGEAQRLIEILSEKAGIIQDTWHKATQKGDPVAILKRQLEEKEKLLATEQEDAAVAKSKLRELNKEMAAEKAKAAAGEAKVKKQLVAREQEITAVQARMQASYREHVKEVQQLQGKIRTLQEQLENGPNTQLARLQQENSILRDALNQATSQVESKQNAELAKLRQELSKVSKELVEKSEAVRQDEQQRKALEAKAAAFEKQVLQLQASHRESEEALQKRLDEVSRELCHTQSSHASLRADAEKAQEQQQQMAELHSKLQSSEAEVRSKCEELSGLHGQLQEARAENSQLTERIRSIEALLEAGQARDAQDVQASQAEADQQQTRLKELESQVSGLEKEAIELREAVEQQKVKNNDLREKNWKAMEALATAEQACKEKLLSLTQAKEESEKQLCLIEAQTMEALLALLPELSVLAQQNYTEWLQDLKEKGPTLLKHPPAPAEPSSDLASKLREAEETQSTLQAECDQYRSILAETEGMLRDLQKSVEEEEQVWRAKVGAAEEELQKSRVTVKHLEEIVEKLKGELESSDQVREHTSHLEAELEKHMAAASAECQNYAKEVAGLRQLLLESQSQLDAAKSEAQKQSDELALVRQQLSEMKSHVEDGDIAGAPASSPEAPPAEQDPVQLKTQLEWTEAILEDEQTQRQKLTAEFEEAQTSACRLQEELEKLRTAGPLESSETEEASQLKERLEKEKKLTSDLGRAATRLQELLKTTQEQLAREKDTVKKLQEQLEKAEDGSSSKEGTSV |
| binds | CLIP-associating protein 2 (protein, UniProt O75122 1-1294) MAMGDDKSFDDEESVDGNRPSSAASAFKVPAPKTSGNPANSARKPGSAGGPKVGGASKEGGAGAVDEDDFIKAFTDVPSIQIYSSRELEETLNKIREILSDDKHDWDQRANALKKIRSLLVAGAAQYDCFFQHLRLLDGALKLSAKDLRSQVVREACITVAHLSTVLGNKFDHGAEAIVPTLFNLVPNSAKVMATSGCAAIRFIIRHTHVPRLIPLITSNCTSKSVPVRRRSFEFLDLLLQEWQTHSLERHAAVLVETIKKGIHDADAEARVEARKTYMGLRNHFPGEAETLYNSLEPSYQKSLQTYLKSSGSVASLPQSDRSSSSSQESLNRPFSSKWSTANPSTVAGRVSAGSSKASSLPGSLQRSRSDIDVNAAAGAKAHHAAGQSVRSGRLGAGALNAGSYASLEDTSDKLDGTASEDGRVRAKLSAPLAGMGNAKADSRGRSRTKMVSQSQPGSRSGSPGRVLTTTALSTVSSGVQRVLVNSASAQKRSKIPRSQGCSREASPSRLSVARSSRIPRPSVSQGCSREASRESSRDTSPVRSFQPLASRHHSRSTGALYAPEVYGASGPGYGISQSSRLSSSVSAMRVLNTGSDVEEAVADALKKPARRRYESYGMHSDDDANSDASSACSERSYSSRNGSIPTYMRQTEDVAEVLNRCASSNWSERKEGLLGLQNLLKNQRTLSRVELKRLCEIFTRMFADPHGKRVFSMFLETLVDFIQVHKDDLQDWLFVLLTQLLKKMGADLLGSVQAKVQKALDVTRESFPNDLQFNILMRFTVDQTQTPSLKVKVAILKYIETLAKQMDPGDFINSSETRLAVSRVITWTTEPKSSDVRKAAQSVLISLFELNTPEFTMLLGALPKTFQDGATKLLHNHLRNTGNGTQSSMGSPLTRPTPRSPANWSSPLTSPTNTSQNTLSPSAFDYDTENMNSEDIYSSLRGVTEAIQNFSFRSQEDMNEPLKRDSKKDDGDSMCGGPGMSDPRAGGDATDSSQTALDNKASLLHSMPTHSSPRSRDYNPYNYSDSISPFNKSALKEAMFDDDADQFPDDLSLDHSDLVAELLKELSNHNERVEERKIALYELMKLTQEESFSVWDEHFKTILLLLLETLGDKEPTIRALALKVLREILRHQPARFKNYAELTVMKTLEAHKDPHKEVVRSAEEAASVLATSISPEQCIKVLCPIIQTADYPINLAAIKMQTKVIERVSKETLNLLLPEIMPGLIQGYDNSESSVRKACVFCLVAVHAVIGDELKPHLSQLTGSKMKLLNLYIKRAQTGSGGADPTTDVSGQS |
| binds | Coatomer subunit gamma-2 (protein, UniProt Q9UBF2 1-871) MIKKFDKKDEESGSGSNPFQHLEKSAVLQEARIFNETPINPRRCLHILTKILYLLNQGEHFGTTEATEAFFAMTRLFQSNDQTLRRMCYLTIKEMATISEDVIIVTSSLTKDMTGKEDVYRGPAIRALCRITDGTMLQAIERYMKQAIVDKVSSVSSSALVSSLHMMKISYDVVKRWINEAQEAASSDNIMVQYHALGVLYHLRKNDRLAVSKMLNKFTKSGLKSQFAYCMLIRIASRLLKETEDGHESPLFDFIESCLRNKHEMVIYEAASAIIHLPNCTARELAPAVSVLQLFCSSPKPALRYAAVRTLNKVAMKHPSAVTACNLDLENLITDSNRSIATLAITTLLKTGSESSVDRLMKQISSFVSEISDEFKVVVVQAISALCQKYPRKHSVMMTFLSNMLRDDGGFEYKRAIVDCIISIVEENPESKEAGLAHLCEFIEDCEHTVLATKILHLLGKEGPRTPVPSKYIRFIFNRVVLENEAVRAAAVSALAKFGAQNESLLPSILVLLQRCMMDTDDEVRDRATFYLNVLQQRQMALNATYIFNGLTVSVPGMEKALHQYTLEPSEKPFDMKSIPLAMAPVFEQKAEITLVATKPEKLAPSRQDIFQEQLAAIPEFLNIGPLFKSSEPVQLTEAETEYFVRCIKHMFTNHIVFQFDCTNTLNDQLLEKVTVQMEPSDSYEVLSCIPAPSLPYNQPGICYTLVRLPDDDPTAVAGSFSCTMKFTVRDCDPNTGVPDEDGYDDEYVLEDLEVTVSDHIQKVLKPNFAAAWEEVGDTFEKEETFALSSTKTLEEAVNNIITFLGMQPCERSDKVPENKNSHSLYLAGIFRGGYDLLVRSRLALADGVTMQVTVRSKERTPVDVILASVG |

Results are given in words; binding and its absence hold for the method and conditions named. Binding seen in cells or lysates may run through a third protein. A yes stands for co-enrichment or nearness to the bait. Other partners may have been found.
